Some entries share one result that the patent states for a list of compounds.
Tested on: SMMC-7721 cells
Assay: MTT colorimetry, inhibition of hepatocellular carcinoma SMMC-7721 cell activity
Assay type: cell-based
Conditions: SMMC-7721, at 1 μmol/L concentration or 10 μmol/L concentration
Method: Test for Inhibition of Cancer Cell Activity by Compound of Embodiment 19 (Taking Hepatocellular Carcinoma SMMC-7721 Cells as an embodiment):
SMMC-7721 cells are cultured in DMEM high sugar medium containing 10% fetal bovine serum in a saturated humidity incubator at 37° C. and 5% CO2. The culture medium is changed every two days and passaged every 3-4 days. The drug is prepared as 1 mmol/L and 10 mmol/L storage solution using DMSO as solvent, when used, the concentration is diluted into 1 μmol/L and 10 μmol/L with culture medium, using DMSO as negative control group and gemcitabine as positive control group to act on cells in logarithmic growth phase.
Cells in logarithmic growth phase are digested with 0.025% pancreatin, and then digested with DMEM high sugar medium containing 10% fetal bovine serum. After centrifugation, the cells are suspended in DMEM high sugar medium containing 10% fetal bovine serum. Take a 96-well plate and add 200 μL of sterile water seal to each hole around the plate to ensure saturated humidity in the experiment. In the middle six rows, 100 μL of cell suspension are added respectively, and the cell concentration is about 3.5×10^4 cells/mL. The last row is blank control group, and the same volume of complete culture medium is added. In 37° C., 5% CO2 saturated humidity incubator culture for 24 hours, cells completely adhere to the wall, remove the culture medium, add complete culture medium containing different drugs, 200 μL per hole. The blank control group is added with 200 μL of complete culture medium, and the culture is continued. After 24 hours, the drug effect is observed and photographed under an inverted microscope. After 48 hours, the drug effect is also observed and photographed under an inverted microscope. Then the supernatant is removed. 100 μL of 0.5 mg/mL MTT solution is added to each well. After 4 hours of continuous culture, purple crystal formazan is generated. 100 μL of 10% SDS is added to each well. After 12 hours of culture in an incubator at 37° C., the OD value is measured with an enzyme reader at A571 wavelength. Repeat 6 wells for each sample concentration, and calculate the inhibition rate by taking the average value.

Row | SMILES | inhibition rate
1 | COc1cc(OC)c2c(=O)c(OCCCCN(C)C3CCN(C(=S)SCc4ccc(Cl)cc4)CC3)c(-c3cc(OC)c(OC)c(OC)c3)oc2c1 [Compound A10, 4-chlorobenzyl-4-((4-((5,7-dimethoxy-4-oxo-2-(3,4,5-trimethoxyphenyl)-4H-benzopyran-3-yl)oxy)butyl) (methyl)amino) piperidine-1-dithiocarboxylic acid] | over 90%
2 | COc1cc(OC)c2c(=O)c(OCCCCN(C)C3CCN(C(=S)SCc4ccccc4Cl)CC3)c(-c3cc(OC)c(OC)c(OC)c3)oc2c1 [Compound A11, 2-chlorobenzyl-4-((4-((5,7-dimethoxy-4-oxo-2-(3,4,5-trimethoxyphenyl)-4H-benzopyran-3-yl)oxy)butyl) (methyl)amino) piperidine-1-dithiocarboxylic acid] | over 90%
3 | COc1cc(OC)c2c(=O)c(OCCCCN(C)C3CCN(C(=S)SCc4ccc(Cl)cc4Cl)CC3)c(-c3cc(OC)c(OC)c(OC)c3)oc2c1 [Compound A12, 2,4-dichlorobenzyl-4-((4-((5,7-dimethoxy-4-oxo-2-(3,4,5-trimethoxyphenyl)-4H-benzopyran-3-yl)oxy)butyl) (methyl)amino) piperidine-1-dithiocarboxylic acid] | over 90%
4 | COc1cc(OC)c2c(=O)c(OCCCCN(C)C3CCN(C(=S)SCc4cccc(C)c4)CC3)c(-c3cc(OC)c(OC)c(OC)c3)oc2c1 [Compound A14, 3-methylbenzyl-4-((4-((5,7-dimethoxy-4-oxo-2-(3,4,5-trimethoxyphenyl)-4H-benzopyran-3-yl)oxy)butyl) (methyl)amino) piperidine-1-dithiocarboxylic acid] | over 90%

Source: patent publication US12043617B2, “4-(N-methyl) aminopiperidine myricetin derivative containing dithiocarbamate, preparation method and application” (Guizhou University, priority 2019, dated 2024)
